Reference: article PMC9814488
These are yes or no findings as the source states them, for the method shown. In cells and extracts the contact can be indirect. Some results given as binding are weak or reduced against the parent protein; the word gives no strength.

Protein sequences, listed by entry. Tags and fused reporters are not part of them. Lines headed by an entry give the natural chain unless they say otherwise; changes in a name come on top. Chains listed by the source or under a name are the forms on record and can include a tag or linker. Residues count along the entry.
N-terminal region of CIC-S containing a FLAG tag at the N-terminus (FLAG-CIC-S-N, residues 1-700) (Q924A2-2, form named): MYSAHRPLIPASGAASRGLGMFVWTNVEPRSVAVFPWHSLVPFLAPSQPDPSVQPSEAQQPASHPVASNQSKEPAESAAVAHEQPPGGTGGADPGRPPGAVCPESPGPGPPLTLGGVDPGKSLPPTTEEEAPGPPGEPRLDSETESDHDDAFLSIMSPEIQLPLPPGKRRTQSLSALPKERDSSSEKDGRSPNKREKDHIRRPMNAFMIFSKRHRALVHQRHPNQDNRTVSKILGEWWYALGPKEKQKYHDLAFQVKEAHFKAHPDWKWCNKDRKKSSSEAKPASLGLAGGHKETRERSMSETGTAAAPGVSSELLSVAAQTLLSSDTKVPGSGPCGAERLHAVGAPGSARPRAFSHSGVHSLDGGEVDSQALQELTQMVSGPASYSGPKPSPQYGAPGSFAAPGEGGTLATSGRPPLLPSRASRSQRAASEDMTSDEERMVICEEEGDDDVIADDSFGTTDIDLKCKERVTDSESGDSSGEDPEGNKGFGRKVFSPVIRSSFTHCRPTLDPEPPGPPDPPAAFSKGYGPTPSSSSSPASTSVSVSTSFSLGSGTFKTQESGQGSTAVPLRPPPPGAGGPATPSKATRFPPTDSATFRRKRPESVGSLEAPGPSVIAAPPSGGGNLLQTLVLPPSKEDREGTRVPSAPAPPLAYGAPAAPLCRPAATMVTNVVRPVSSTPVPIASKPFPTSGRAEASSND
C-terminal region of CIC-S containing an HA tag at the C-terminus (CIC-S-C-HA, residue 701 to the end) (Q924A2-2, form named): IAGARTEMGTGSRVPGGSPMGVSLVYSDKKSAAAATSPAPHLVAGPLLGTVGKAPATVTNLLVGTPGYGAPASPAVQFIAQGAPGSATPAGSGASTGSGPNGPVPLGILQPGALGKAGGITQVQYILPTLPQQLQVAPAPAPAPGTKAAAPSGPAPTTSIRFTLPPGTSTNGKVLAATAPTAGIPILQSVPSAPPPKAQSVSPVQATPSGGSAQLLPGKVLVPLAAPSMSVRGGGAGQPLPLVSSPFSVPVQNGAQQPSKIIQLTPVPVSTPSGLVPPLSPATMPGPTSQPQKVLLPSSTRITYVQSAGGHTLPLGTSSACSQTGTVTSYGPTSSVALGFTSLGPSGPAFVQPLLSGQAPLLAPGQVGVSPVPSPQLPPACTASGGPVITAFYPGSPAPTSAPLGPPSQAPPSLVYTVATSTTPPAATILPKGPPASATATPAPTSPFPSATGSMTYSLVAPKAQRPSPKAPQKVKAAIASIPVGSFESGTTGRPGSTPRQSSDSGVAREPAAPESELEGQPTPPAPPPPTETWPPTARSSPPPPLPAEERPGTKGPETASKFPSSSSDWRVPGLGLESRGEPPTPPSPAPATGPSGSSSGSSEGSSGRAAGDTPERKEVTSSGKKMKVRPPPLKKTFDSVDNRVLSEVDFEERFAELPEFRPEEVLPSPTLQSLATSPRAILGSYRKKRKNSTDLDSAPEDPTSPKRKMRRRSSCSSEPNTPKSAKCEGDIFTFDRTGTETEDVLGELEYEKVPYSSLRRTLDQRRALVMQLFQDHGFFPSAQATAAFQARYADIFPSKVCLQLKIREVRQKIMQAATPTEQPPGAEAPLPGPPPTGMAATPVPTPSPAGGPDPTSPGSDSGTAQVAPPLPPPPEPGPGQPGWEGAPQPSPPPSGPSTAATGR

How the values were obtained:
[1] = target: N-terminal region of CIC-S containing a FLAG tag at the N-terminus (FLAG-CIC-S-N, residues 1-700) (mouse) (UniProt Q924A2); assay: co-IP; HEK293T co-transfected with FLAG-CIC-S-N and CIC-S-C-HA; cells fixed (cross-linked) with 1% PFA for 10 min at RT, sonicated in IP buffer (20 mM Tris-HCl pH 8.0, 350 mM KCl, 0.2 mM EDTA); ANTI-FLAG M2 affinity gel overnight at 4 °C; blot for HA; cells untreated or treated with EGF, or EGF and the ERK inhibitor SCH772984
[2] = target: N-terminal region of CIC-S containing a FLAG tag at the N-terminus (FLAG-CIC-S-N, residues 1-700) (mouse) (UniProt Q924A2); assay: proximity ligation; HEK293T co-transfected with FLAG-CIC-S-N and CIC-S-C-HA, treated with PBS or EGF for 5 min; fixed with 4% PFA, permeabilised with 0.1% Triton X-100; Duolink PLA with anti-FLAG M2 and anti-HA primary antibodies

binding [1]: binds
binding [2]: binds
Substance: C-terminal region of CIC-S containing an HA tag at the C-terminus (CIC-S-C-HA, residue 701 to the end) (from UniProt Q924A2-2 701-1604) (domain or fragment)
